Some of the results follow.
Compound: Cc1cc(ccc1-c1ccccc1)C(=O)N1CCCN(CC1)C(=O)CCl [compound 10]
Assay: probe-labelled cysteine peptide fold change vs DMSO (competition) (log2 fold change); higher = less target engagement (more negative = stronger competition)
Conditions: THP-1, incubation time: 4 h
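Further: competitive profiling in live THP-1 cells: cysteine peptides tagged with an iodoacetamide desthiobiotin (IA-DTB) probe, intensity after compound treatment relative to DMSO-treated cells.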

The chains behind the UniProt entries cited, without tags or fusion partners. Where a name states a change or a piece, a line headed by the entry shows the natural chain unless it says otherwise.
UniProt Q9Y281, whole entry: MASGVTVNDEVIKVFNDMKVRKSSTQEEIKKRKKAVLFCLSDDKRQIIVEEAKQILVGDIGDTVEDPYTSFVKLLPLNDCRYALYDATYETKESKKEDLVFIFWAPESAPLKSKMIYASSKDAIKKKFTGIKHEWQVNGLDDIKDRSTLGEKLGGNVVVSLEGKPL
UniProt Q9UFW8: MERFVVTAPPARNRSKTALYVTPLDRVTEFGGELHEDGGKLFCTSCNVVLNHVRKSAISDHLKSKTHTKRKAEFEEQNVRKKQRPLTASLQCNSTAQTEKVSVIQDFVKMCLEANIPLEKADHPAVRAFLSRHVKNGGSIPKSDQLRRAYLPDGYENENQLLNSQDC
UniProt P23528, whole entry, looked up: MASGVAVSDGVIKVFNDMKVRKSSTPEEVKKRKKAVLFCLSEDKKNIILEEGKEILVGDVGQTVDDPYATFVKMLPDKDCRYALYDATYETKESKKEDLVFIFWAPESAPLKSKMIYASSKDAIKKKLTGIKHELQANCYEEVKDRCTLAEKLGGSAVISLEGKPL
UniProt Q8WUH1: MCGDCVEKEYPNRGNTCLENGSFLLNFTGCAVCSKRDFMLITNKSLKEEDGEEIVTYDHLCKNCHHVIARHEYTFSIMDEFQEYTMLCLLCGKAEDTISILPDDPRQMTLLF
UniProt Q00610: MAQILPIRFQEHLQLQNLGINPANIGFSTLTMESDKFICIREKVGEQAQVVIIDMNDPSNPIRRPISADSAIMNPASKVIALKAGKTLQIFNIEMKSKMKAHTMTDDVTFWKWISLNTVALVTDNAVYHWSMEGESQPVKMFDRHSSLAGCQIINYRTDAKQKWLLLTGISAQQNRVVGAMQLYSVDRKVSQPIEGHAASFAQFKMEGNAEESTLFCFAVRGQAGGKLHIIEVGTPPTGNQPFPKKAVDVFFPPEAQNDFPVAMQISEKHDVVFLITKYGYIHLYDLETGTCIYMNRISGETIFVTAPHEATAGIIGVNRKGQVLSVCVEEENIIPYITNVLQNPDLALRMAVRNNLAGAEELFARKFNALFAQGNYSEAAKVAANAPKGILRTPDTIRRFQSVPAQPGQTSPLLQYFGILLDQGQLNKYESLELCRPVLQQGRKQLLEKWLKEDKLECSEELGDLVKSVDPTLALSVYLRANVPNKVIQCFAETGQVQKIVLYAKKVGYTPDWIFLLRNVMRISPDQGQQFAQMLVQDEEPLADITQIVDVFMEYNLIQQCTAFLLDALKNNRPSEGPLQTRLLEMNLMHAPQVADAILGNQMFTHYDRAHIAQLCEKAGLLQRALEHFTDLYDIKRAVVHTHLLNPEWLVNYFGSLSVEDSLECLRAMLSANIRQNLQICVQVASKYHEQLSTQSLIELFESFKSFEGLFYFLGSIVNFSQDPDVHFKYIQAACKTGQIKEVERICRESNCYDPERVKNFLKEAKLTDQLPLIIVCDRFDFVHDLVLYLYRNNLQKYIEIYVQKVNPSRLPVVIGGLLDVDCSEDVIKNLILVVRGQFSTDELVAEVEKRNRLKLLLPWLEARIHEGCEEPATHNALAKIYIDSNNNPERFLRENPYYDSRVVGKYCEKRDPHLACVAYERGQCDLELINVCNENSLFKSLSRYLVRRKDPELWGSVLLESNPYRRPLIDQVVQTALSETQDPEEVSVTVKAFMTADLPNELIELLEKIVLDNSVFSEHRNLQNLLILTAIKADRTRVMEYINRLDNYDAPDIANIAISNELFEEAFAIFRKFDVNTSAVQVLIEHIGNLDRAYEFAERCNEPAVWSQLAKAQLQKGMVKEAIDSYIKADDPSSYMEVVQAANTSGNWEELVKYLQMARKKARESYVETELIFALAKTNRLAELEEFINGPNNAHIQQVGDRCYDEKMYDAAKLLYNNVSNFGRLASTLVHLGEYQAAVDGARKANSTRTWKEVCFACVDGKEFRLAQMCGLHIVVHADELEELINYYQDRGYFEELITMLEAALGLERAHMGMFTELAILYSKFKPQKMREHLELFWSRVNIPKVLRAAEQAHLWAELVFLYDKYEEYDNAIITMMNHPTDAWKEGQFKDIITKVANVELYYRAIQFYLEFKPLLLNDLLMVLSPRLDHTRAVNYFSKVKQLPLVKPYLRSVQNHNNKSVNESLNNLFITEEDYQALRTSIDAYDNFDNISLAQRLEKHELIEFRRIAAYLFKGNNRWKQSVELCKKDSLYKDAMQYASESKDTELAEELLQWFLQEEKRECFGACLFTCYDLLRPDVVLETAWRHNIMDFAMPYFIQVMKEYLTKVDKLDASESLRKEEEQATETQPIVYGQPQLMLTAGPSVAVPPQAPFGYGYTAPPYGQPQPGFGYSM
UniProt Q6FI81: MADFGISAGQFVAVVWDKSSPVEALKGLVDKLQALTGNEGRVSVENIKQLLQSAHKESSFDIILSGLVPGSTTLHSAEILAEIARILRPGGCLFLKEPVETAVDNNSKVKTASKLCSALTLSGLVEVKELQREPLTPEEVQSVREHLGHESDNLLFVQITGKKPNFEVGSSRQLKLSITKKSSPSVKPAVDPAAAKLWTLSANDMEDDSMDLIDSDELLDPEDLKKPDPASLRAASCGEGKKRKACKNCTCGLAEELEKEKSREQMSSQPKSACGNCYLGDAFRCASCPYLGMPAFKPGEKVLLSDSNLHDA
UniProt O75153: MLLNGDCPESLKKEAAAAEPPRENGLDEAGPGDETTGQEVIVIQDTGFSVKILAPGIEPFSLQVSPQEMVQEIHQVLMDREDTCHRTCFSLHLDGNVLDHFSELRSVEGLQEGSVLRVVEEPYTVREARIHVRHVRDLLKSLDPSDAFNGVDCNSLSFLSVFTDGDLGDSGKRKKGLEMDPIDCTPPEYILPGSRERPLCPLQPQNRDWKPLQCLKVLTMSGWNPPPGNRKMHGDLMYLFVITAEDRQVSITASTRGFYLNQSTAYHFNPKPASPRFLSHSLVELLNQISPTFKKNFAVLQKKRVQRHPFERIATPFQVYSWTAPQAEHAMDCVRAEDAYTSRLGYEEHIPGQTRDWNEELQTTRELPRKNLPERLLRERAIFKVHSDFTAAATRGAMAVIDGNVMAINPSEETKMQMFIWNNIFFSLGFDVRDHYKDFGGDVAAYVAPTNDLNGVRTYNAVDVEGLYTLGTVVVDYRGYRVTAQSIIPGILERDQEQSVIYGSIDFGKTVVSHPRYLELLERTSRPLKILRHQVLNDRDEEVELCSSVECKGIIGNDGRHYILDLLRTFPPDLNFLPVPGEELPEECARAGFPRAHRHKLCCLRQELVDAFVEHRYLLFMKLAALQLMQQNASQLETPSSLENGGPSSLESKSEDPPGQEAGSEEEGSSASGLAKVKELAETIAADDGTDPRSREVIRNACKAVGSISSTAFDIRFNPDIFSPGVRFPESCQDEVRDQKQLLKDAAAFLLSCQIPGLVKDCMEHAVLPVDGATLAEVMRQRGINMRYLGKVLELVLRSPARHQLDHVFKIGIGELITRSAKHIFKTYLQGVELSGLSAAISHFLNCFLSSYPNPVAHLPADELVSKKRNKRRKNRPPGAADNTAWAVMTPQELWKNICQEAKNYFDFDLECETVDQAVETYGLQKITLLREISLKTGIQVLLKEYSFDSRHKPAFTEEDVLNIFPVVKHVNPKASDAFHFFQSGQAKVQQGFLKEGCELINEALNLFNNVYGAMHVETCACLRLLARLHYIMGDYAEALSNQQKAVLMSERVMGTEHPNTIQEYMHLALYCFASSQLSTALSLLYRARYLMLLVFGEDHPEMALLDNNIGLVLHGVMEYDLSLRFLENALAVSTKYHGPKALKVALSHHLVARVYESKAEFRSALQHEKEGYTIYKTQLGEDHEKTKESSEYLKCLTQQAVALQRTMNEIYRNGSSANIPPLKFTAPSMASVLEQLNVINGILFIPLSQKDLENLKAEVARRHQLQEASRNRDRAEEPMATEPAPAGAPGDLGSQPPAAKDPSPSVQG
UniProt Q14008: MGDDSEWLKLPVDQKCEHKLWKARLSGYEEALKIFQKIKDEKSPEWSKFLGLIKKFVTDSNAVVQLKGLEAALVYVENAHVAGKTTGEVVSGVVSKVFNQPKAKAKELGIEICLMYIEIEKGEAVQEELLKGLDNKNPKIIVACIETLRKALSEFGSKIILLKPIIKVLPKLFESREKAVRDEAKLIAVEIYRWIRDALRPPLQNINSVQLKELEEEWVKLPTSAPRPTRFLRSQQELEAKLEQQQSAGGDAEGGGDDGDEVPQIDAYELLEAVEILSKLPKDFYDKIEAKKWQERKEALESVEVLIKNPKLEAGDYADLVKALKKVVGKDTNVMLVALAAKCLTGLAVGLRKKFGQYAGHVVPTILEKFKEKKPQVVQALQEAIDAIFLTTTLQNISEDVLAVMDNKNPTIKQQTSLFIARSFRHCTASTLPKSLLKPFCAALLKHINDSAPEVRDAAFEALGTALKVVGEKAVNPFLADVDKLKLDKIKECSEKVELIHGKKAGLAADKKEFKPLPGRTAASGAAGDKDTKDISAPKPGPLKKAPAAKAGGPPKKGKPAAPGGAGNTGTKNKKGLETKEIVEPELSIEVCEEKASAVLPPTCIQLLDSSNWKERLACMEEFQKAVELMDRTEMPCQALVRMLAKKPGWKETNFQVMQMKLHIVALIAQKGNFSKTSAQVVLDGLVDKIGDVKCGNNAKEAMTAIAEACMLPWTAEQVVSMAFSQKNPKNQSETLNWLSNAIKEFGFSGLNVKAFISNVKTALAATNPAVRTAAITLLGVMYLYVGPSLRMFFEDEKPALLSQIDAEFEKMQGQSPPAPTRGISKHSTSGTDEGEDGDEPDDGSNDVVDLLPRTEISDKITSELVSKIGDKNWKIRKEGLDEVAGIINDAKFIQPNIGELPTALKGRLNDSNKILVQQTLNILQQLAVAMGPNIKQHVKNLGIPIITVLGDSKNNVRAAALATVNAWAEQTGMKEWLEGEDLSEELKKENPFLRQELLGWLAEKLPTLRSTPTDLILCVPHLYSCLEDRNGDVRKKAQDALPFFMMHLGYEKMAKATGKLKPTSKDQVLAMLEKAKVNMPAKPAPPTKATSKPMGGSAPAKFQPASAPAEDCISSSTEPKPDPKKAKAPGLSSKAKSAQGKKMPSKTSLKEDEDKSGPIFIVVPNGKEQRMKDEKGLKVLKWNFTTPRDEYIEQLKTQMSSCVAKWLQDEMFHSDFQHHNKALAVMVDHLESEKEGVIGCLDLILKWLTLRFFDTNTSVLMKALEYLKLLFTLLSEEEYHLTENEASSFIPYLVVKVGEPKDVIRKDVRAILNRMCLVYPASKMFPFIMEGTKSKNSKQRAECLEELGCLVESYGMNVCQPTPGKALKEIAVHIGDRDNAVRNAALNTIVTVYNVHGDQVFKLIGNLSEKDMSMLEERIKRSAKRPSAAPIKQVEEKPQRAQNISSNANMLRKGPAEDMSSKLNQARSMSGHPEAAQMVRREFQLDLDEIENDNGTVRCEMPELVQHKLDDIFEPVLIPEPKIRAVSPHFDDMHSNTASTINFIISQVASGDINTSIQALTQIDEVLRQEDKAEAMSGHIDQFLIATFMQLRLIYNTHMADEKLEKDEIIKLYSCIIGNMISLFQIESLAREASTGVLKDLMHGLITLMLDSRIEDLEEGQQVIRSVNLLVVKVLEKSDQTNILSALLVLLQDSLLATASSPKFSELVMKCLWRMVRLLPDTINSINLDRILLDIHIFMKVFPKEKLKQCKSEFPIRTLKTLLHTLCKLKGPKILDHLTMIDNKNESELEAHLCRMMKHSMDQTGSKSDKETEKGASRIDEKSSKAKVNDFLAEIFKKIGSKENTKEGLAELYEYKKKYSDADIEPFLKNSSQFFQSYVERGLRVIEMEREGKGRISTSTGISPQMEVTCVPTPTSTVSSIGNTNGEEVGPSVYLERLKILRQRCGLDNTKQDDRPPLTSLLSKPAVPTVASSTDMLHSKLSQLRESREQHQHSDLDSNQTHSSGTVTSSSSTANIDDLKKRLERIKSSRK
UniProt P24386: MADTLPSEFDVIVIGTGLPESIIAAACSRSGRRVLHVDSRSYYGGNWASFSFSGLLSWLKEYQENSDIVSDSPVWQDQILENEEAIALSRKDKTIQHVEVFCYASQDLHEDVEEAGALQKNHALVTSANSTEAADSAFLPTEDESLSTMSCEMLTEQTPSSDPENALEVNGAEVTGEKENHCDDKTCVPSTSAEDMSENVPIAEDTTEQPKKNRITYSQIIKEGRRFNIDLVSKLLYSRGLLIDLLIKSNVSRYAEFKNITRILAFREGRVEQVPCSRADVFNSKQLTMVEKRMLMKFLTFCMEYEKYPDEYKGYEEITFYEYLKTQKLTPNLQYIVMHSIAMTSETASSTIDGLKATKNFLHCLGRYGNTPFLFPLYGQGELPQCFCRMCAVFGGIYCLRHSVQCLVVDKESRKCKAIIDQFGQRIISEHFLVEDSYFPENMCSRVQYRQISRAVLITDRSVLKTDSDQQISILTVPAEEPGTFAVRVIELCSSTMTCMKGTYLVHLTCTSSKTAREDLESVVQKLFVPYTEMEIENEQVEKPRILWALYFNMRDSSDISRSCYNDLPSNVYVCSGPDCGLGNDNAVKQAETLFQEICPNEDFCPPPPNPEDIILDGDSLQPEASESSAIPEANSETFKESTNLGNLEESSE

Row | Target | probe-labelled cysteine peptide fold change (10 µM) | probe-labelled cysteine peptide fold change (50 µM)
1 | CFL2_Q9Y281_80_LLPLNDCR (UniProt Q9Y281) | -0.0257 | 0.119
2 | CHORDC1_Q9UHD1_59_RTTDFSDFLSIVGCTK (UniProt Q9UHD1) | -0.167 | -0.292
3 | CISD2_Q8N5K1_110_TFPACDGSHNK (UniProt Q8N5K1) | -0.176 | -0.321
4 | CMAS_Q8NFW8_405_AVGYICK (UniProt Q8NFW8) | 0.0477 | -0.099
5 | CGGBP1_Q9UFW8_43_LFCTSCNVVLNHVR (UniProt Q9UFW8) | 0.169 | 0.0816
6 | CHAF1A_Q13111_761_EFQEHCR (UniProt Q13111) | 0.146 | 0.109
7 | CFL1_P23528_39_AVLFCLSEDK (UniProt P23528) | 0.0825 | 0.0485
8 | CHURC1_Q8WUH1_88_SLKEEDGEEIVTYDHLCK (UniProt Q8WUH1) | 0.0647 | -0.373
9 | CLTC_Q00610_491_VIQCFAETGQVQK (UniProt Q00610) | -0.00321 | 0.2
10 | CLTC_Q00610_870_IHEGCEEPATHNALAK (UniProt Q00610) | -0.123 | -0.147
11 | CLSTN1_O94985_261_ISIKPTCTPGWQGWNNR (UniProt O94985) | -0.232 | -0.061
12 | CLTC_Q00610_753_ESNCYDPER (UniProt Q00610) | -0.0895 | -0.0135
13 | CIAPIN1_Q6FI81_251_NCTCGLAEELEK (UniProt Q6FI81) | -0.254 | -0.998
14 | CHAMP1_Q96JM3_770_CNFESNFPR (UniProt Q96JM3) | 0.0281 | -0.498
15 | CLUH_O75153_333_IATPFQVYSWTAPQAEHAMDCVR (UniProt O75153) | -0.294 | -0.854
16 | CGGBP1_Q9UFW8_92_QRPLTASLQCNSTAQTEK (UniProt Q9UFW8) | -0.269 | -0.375
17 | CLTCL1_P53675_459_LECSEELGDLVK (UniProt P53675) | 0.0211 | 0.516
18 | CKAP5_Q14008_1019+1026_STPTDLILCVPHLYSCLEDR (UniProt Q14008) | 0.223 | 0.335
19 | CHPF_Q8IZ52_266_MLLQQLRPHLEGCR (UniProt Q8IZ52) | 0.0374 | 0.0412
20 | CLTC_Q00610_217_MEGNAEESTLFCFAVR (UniProt Q00610) | 0.184 | 0.156

Row | Target | probe-labelled cysteine peptide fold change (10 µM) | probe-labelled cysteine peptide fold change (50 µM)
21 | CLIC1_O00299_223_EEFASTCPDDEEIELAYEQVAK (UniProt O00299) | -0.171 | 0.0241
22 | CIAPIN1_Q6FI81_116_LCSALTLSGLVEVK (UniProt Q6FI81) | -0.0551 | -0.198
23 | CMIP_Q8IY22_514_FAEDPRQEVHSCLLSVR (UniProt Q8IY22) | -0.0943 | -0.327
24 | CKAP2_Q8WWK9_674_ETDAFVCRPNAALCR (UniProt Q8WWK9) | -0.078 | 0.116
25 | CIT_O14578_1019_TTCTMLEEQVMDLEALNDELLEK (UniProt O14578) | 0.0843 | -0.0477
26 | CHM_P24386_444_IISEHFLVEDSYFPENMCSR (UniProt P24386) | 0.0119 | -0.076
27 | CLASP2_O75122_157_EACITVAHLSTVLGNK (UniProt O75122) | 0.29 | 0.404
28 | CHD4_Q14839_493_CTCPALK (UniProt Q14839) | 0.0162 | 0.156
29 | CHD9_Q3L8U1_1375_FCEEDIDQILLR (UniProt Q3L8U1) | 0.149 | 0.222
30 | CKAP2_Q8WWK9_100_HCIPLKPSNELTNSTVVIDTHKPK (UniProt Q8WWK9) | 0.0423 | -0.254
31 | CHM_P24386_406_HSVQCLVVDK (UniProt P24386) | -0.111 | 0.143
32 | CHM_P24386_364_NFLHCLGR (UniProt P24386) | 0.0386 | 0.278
33 | CKAP5_Q14008_1795_NESELEAHLCR (UniProt Q14008) | -0.122 | 0.228
34 | CKAP5_Q14008_1795_ILDHLTMIDNKNESELEAHLCR (UniProt Q14008) | -0.164 | -0.477
35 | CHD1_O14646_1417_TFSICK (UniProt O14646) | 0.109 | -0.131
36 | CLTC_Q00610_436_YESLELCRPVLQQGR (UniProt Q00610) | 0.0476 | 0.249
37 | CLP1_Q92989_338_VGAPTIPDSCLPLGMSQEDNQLK (UniProt Q92989) | -0.417 | -0.0353
38 | CLSPN_Q9HAW4_397_ETQIITGSDESCR (UniProt Q9HAW4) | -0.241 | 0.0264
39 | CLUH_O75153_88_TCFSLHLDGNVLDHFSELR (UniProt O75153) | 0.161 | -0.157

Single records (already shown):
CLTC_Q00610_436_YESLELCRPVLQQGR (UniProt Q00610) in the list: probe-labelled cysteine peptide fold change (10 µM) = 0.0476; probe-labelled cysteine peptide fold change (50 µM) = 0.249
CLUH_O75153_88_TCFSLHLDGNVLDHFSELR (UniProt O75153) in the list: probe-labelled cysteine peptide fold change (10 µM) = 0.161; probe-labelled cysteine peptide fold change (50 µM) = -0.157
